These are yes or no findings as the source states them, for the method shown. Some entries that bind do so weakly or less than the wild type.
What was measured:
[1] = target: biotinamidocaproyl-Bovine Serum Albumin (bovine) (UniProt P02769); assay: AFM dynamic force spectroscopy
[2] = target: AP-IGF1R biotinylated by co-expressed BirA-ER (human type 1 insulin-like growth factor receptor fused to the acceptor peptide tag), on COS7 cells (human) (UniProt P08069); assay: fluorescence microscopy of live COS7 cells, Alexa Fluor 555 conjugate
[3] = target: AP-IGF1R biotinylated by co-expressed BirA-ER (human type 1 insulin-like growth factor receptor fused to the acceptor peptide tag), on COS7 cells (human) (UniProt P08069); assay: fluorescence microscopy of live COS7 cells, Alexa Fluor 555 conjugate, 0.4 µM, 4° C.

Protein sequences, listed by entry. Tags and fused reporters are not part of them. Lines headed by an entry give the natural chain unless they say otherwise; changes in a name come on top. Residues count along the entry.
UniProt P02769, residues 25-607: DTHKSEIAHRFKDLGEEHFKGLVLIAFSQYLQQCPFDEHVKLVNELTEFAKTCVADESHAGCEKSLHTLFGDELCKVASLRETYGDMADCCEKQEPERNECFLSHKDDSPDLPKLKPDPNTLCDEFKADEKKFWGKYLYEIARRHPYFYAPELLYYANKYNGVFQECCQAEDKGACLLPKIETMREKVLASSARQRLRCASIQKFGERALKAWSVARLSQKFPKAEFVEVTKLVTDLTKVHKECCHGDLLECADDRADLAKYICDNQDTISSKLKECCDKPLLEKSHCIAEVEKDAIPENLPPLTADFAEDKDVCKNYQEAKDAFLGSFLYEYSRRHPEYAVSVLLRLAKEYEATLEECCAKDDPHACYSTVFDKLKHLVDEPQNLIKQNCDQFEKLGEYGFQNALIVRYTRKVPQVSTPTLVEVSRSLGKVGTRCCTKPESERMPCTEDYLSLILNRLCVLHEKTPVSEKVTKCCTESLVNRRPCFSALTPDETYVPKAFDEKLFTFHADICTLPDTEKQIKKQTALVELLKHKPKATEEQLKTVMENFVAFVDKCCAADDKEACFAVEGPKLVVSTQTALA
UniProt P08069: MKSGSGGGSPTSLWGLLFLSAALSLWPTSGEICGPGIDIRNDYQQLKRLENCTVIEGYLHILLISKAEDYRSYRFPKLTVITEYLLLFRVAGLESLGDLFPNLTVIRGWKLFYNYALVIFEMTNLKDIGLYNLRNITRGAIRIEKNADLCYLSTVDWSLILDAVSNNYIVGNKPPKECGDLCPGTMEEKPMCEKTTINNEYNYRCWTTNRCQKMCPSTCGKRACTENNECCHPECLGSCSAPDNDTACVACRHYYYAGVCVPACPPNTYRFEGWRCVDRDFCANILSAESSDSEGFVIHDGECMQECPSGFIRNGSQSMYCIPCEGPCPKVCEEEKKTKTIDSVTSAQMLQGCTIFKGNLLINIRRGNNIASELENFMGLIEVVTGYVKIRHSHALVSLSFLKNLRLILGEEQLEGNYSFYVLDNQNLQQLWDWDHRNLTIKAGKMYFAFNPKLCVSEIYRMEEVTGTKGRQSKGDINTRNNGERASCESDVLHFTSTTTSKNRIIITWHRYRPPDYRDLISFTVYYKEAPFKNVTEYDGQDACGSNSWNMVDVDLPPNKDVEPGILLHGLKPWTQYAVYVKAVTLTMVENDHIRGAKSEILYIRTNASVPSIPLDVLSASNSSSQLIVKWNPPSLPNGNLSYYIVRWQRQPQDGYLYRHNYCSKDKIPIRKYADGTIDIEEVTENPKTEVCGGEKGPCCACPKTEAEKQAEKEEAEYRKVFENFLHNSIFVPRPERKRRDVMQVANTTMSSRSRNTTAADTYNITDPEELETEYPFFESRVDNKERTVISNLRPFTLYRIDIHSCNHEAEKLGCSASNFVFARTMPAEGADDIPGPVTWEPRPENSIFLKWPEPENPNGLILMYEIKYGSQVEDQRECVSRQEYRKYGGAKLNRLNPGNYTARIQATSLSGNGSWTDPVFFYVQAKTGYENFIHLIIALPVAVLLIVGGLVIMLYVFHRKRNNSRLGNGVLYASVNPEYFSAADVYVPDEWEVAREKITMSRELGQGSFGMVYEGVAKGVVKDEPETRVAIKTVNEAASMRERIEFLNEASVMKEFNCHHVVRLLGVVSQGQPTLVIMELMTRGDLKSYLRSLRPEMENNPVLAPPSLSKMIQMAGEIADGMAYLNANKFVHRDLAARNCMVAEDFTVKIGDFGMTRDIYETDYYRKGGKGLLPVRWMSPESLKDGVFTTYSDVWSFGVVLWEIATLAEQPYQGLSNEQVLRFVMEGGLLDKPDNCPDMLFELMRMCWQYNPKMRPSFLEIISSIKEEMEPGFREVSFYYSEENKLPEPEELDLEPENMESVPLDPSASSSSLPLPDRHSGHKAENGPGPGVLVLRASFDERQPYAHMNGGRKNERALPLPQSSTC
UniProt P22629: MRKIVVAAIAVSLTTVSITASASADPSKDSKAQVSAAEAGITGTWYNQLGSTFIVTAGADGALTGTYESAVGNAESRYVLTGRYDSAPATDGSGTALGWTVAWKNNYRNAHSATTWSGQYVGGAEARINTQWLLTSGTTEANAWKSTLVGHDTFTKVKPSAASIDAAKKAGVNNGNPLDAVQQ

Substance: Streptavidin (core streptavidin with His6 at the C-terminus) (from UniProt P22629 37-163)
- binding [1]: binds
- binding [2]: binds

Substance: Traptavidin (S52G R53D mutant of core streptavidin with C-terminal His6 tag) (from UniProt P22629 37-163)
- binding [1]: binds
- binding [2]: binds
- binding [3]: binds
